In publication PMC7294778:
No constants are given. Whether binding was seen depends on the method and setting. Binding seen in cells or lysates may run through a third protein. Some entries that bind do so weakly or less than the wild type. Where a sequence is shown, tags or fusion partners need not be part of it.

Biological target: T1, Sit4-HA (S. cerevisiae) (UniProt P20604)
T1 sequence: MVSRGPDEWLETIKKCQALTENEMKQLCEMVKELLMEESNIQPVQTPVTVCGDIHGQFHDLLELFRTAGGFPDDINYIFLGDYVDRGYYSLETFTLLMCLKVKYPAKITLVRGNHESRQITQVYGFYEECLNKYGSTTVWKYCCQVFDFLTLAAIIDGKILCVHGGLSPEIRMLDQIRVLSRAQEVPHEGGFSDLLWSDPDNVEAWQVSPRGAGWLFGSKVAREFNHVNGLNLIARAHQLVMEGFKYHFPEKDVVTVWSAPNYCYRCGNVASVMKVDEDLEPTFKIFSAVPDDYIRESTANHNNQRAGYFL
Test: co-IP; extracts of cells co-expressing KNS1-myc13 and SIT4-HA, grown exponentially in YPD at 30°C, treated or not (mock) with 300 nM rapamycin for 1 hr; lysis buffer 50 mM NaCl, 150 mM Tris-HCl pH 8.0, 0.1% NP40, 1 mM EDTA, 1 mM EGTA, 1 mM PMSF; immunoprecipitated with anti-HA antibody and protein A/G beads; Western blot

binding: binds
B1: Kns1-myc13 (protein, UniProt P32350 1-737)
chain: MSQNIQIGTRKRSRANMNNSTTTGPANNTSSNKTFLDNFEETRTNKLLDEMFARQNSFLTDNLRNSLDLNQADNPLRPRQHQHQLFLDNENAIELDEEPRIINTTINNSNNHNSSRVDEDADDDIIFIKEQPIQFSSPLILPSSSSINNNNNIVTSNNPGCGTAATSNSTYITTPKKFKKQRTISLPQLPLSKLSYQSNYFNVPDQTNAIVPRVTQTENELLHLTGSCAKTLEGNKAVNLTIAHSTSPFSNPPAQIASLPQSNLKKQIGSSLRKFTSNGSSESASSNKSNFKTDKDGHYVYQENDIFGSGGRFVVKDLLGQGTFGKVLKCIDNKYEPNYVAVKVIRAVDRYREAAKTELRILQTILNNDPQGQFQCLLLRECFDYKNHICLVTDLYGRSIYDFMCSNGIARFPGSHIQAIARQLIRSVCFLHDLGIIHTDLKPENILICDETHIAQKLPLKTVQSLSKRRREASKGKRKILKNPEIKIIDFGSAIFHYEYHPPVISTRHYRAPEIVLGLGWSFPCDIWSIACVLVELVIGESLYPIHENLEHMAMMQRINGTPFPTDIIDKMFYKSKHKLGNSPSDLNSTVIKHFDRKTLSLQWPEKNKRGDTITTEKSMKRVLQSCDRLDIYISKVLKQDYGDSLSINWNLPPEKNWSLINSKLAWKRQTHSSSSSTTDELDKETFLFWYWFIDLLRKMFEFDPTKRITAKDALDHEWFNLGILDDGIATYNNTQG
